Laboratory results reported in paper PMC9344665.
Numbering of substitutions follows the chain as printed. These are yes or no findings as the source states them, for the method shown. Some results given as binding are weak or reduced against the parent protein; the word gives no strength. Where a sequence is shown, tags or fusion partners need not be part of it.

How the values were obtained:
Assay in all cases: co-purification of coexpressed proteins (Ni-NTA, heparin, size-exclusion chromatography); His6-FARSA and untagged FARSB coexpressed in E. coli Rosetta (DE3); lysate on Ni-NTA (20 mM Tris-HCl pH 8.5, 500 mM NaCl), His6-tag removed with HRV3C, HiTrap Heparin HP with a NaCl gradient, then SEC in 20 mM HEPES-NaOH pH 7.5, 150 mM NaCl; SDS-PAGE of fractions
[1] = target: T1, FARSA P347L variant (human) (UniProt Q9Y285)
T1 sequence: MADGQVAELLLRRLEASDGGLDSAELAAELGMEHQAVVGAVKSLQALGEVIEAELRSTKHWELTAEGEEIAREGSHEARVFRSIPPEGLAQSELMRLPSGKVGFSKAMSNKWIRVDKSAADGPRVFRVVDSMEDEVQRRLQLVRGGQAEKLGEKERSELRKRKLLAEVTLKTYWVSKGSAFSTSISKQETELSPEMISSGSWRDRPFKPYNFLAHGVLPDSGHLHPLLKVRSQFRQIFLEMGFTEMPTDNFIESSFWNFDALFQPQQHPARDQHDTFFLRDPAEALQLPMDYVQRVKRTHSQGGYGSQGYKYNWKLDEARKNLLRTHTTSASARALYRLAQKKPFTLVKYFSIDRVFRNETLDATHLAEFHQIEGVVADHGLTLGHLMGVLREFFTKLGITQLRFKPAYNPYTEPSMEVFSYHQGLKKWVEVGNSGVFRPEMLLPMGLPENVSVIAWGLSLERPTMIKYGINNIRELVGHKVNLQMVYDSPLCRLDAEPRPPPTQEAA

[2] = target: T2, FARSA R295W variant (human) (UniProt Q9Y285)
T2 sequence: T1 sequence with R295W, L347P

[3] = target: T3, FARSA R404C variant (human) (UniProt Q9Y285)
T3 sequence: T1 sequence with L347P, R404C

[4] = target: T4, FARSA R475Q variant (human) (UniProt Q9Y285)
T4 sequence: T1 sequence with L347P, R475Q

B1: FARSB (β subunit of cytosolic phenylalanyl-tRNA synthetase FARS1), no affinity tag (enzyme, UniProt Q9NSD9 1-584)
chain: MPTVSVKRDLLFQALGRTYTDEEFDELCFEFGLELDEITSEKEIISKEQGNVKAAGASDVVLYKIDVPANRYDLLCLEGLVRGLQVFKERIKAPVYKRVMPDGKIQKLIITEETAKIRPFAVAAVLRNIKFTKDRYDSFIELQEKLHQNICRKRALVAIGTHDLDTLSGPFTYTAKRPSDIKFKPLNKTKEYTACELMNIYKTDNHLKHYLHIIENKPLYPVIYDSNGVVLSMPPIINGDHSRITVNTRNIFIECTGTDFTKAKIVLDIIVTMFSEYCENQFTVEAAEVVFPNGKSHTFPELAYRKEMVRADLINKKVGIRETPENLAKLLTRMYLKSEVIGDGNQIEIEIPPTRADIIHACDIVEDAAIAYGYNNIQMTLPKTYTIANQFPLNKLTELLRHDMAAAGFTEALTFALCSQEDIADKLGVDISATKAVHISNPKTAEFQVARTTLLPGLLKTIAANRKMPLPLKLFEISDIVIKDSNTDVGAKNYRHLCAVYYNKNPGFEIIHGLLDRIMQLLDVPPGEDKGGYVIKASEGPAFFPGRCAEIFARGQSVGKLGVLHPDVITKFELTMPCSSLEIN
With B1 the binding [1] was “no binding”, the binding [2] was “binds” and the binding [3] was “no binding”. For the same binder, the binding [4] was “binds”.
